In publication PMC10681313:
These are yes or no findings as the source states them, for the method shown. In cells and extracts the contact can be indirect. Some entries that bind do so weakly or less than the wild type. Where a sequence is shown, tags or fusion partners need not be part of it.

The chains behind the UniProt entries cited, without tags or fusion partners. Where a name states a change or a piece, a line headed by the entry shows the natural chain unless it says otherwise. A line that says so, or that is headed by a name, gives the form on record, which may keep a tag or linker.
UniProt Q9JMB7: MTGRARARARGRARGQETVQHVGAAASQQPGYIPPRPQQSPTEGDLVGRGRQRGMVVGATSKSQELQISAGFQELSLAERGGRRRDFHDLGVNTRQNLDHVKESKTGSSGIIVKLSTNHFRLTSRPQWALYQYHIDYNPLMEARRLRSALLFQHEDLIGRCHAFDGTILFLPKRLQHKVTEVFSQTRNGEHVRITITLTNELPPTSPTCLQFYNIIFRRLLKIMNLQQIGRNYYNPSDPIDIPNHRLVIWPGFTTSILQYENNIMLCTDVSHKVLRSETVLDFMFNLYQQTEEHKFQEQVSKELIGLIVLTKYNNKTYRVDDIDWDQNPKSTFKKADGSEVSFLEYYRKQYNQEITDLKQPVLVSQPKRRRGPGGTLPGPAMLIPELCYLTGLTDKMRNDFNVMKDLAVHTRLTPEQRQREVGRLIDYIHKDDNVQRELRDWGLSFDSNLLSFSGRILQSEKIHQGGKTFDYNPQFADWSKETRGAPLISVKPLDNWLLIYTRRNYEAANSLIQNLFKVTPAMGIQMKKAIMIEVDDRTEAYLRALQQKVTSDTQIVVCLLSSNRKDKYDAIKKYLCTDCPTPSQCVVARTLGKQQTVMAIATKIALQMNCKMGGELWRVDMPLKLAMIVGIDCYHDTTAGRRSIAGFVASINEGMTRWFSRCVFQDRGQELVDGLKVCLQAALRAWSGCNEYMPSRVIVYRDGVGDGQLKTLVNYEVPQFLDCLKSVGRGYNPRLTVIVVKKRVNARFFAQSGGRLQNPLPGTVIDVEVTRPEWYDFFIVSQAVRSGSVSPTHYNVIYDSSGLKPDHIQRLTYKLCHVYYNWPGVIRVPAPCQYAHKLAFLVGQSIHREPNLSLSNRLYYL
FLAG-tagged MIWI^RK (Q9JMB7, form named): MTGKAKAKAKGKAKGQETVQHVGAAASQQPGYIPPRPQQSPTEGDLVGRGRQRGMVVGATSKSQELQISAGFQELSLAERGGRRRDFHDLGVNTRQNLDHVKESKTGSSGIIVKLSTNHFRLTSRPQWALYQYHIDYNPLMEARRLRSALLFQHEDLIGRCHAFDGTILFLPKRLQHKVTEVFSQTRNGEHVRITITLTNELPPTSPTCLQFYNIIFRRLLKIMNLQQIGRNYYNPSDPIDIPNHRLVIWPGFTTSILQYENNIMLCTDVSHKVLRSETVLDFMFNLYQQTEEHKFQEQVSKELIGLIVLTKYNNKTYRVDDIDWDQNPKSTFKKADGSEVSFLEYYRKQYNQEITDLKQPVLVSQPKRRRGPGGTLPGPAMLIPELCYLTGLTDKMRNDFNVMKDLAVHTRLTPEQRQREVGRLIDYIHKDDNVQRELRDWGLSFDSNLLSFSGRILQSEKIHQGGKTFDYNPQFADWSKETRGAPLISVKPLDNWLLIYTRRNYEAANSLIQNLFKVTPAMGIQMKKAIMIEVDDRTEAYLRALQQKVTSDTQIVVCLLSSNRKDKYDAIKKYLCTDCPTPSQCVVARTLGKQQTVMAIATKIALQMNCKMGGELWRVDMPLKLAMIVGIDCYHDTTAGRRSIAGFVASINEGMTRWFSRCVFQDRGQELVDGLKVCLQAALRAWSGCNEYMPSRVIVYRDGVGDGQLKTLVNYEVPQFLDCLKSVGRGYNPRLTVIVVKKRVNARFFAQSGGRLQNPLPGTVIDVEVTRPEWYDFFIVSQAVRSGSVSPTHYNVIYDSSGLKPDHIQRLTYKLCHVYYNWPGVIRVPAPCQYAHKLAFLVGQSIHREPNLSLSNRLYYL
UniProt Q99MV7: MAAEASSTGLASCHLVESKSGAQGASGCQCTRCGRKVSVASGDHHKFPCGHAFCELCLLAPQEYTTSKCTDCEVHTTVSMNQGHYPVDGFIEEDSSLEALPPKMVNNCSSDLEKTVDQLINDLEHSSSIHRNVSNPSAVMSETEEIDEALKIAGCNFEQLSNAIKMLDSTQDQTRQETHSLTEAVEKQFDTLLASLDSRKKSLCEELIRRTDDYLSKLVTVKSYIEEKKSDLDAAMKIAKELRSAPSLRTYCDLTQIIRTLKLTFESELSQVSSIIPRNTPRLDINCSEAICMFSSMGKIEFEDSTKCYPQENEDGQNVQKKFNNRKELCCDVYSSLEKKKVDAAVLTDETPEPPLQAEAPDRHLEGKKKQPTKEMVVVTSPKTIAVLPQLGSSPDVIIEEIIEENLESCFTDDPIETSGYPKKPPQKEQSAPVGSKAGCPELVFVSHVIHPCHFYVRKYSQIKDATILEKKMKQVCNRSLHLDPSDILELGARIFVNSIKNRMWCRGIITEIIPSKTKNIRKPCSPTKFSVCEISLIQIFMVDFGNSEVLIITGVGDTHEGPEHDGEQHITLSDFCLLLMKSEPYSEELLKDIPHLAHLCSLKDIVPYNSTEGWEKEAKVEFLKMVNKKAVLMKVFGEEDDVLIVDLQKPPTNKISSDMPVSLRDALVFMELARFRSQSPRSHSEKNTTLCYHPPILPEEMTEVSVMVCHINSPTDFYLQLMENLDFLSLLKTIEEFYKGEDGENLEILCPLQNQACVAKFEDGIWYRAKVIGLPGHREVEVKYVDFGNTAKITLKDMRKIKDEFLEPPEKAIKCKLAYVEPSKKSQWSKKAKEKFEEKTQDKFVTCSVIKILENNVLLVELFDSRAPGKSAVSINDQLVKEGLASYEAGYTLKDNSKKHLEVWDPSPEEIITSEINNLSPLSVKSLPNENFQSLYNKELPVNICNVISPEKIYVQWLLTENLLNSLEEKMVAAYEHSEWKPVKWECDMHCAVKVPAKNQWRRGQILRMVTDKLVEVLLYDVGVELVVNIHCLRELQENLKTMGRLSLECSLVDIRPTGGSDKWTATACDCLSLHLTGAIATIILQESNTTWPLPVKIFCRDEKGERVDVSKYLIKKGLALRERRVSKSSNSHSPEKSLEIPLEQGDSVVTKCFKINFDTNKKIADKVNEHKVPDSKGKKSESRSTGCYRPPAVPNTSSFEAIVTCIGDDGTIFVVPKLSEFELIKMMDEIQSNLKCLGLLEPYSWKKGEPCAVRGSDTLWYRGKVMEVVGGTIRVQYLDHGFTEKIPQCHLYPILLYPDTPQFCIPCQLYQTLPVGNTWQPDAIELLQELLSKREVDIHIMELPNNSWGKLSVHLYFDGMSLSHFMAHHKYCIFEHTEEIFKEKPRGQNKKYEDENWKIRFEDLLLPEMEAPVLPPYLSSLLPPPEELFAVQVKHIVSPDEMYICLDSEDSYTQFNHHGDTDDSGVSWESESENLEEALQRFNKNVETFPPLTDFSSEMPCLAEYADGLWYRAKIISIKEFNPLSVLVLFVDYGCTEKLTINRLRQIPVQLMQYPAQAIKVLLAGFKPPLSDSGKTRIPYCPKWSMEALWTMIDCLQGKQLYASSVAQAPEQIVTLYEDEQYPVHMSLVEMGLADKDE
UniProt P61407: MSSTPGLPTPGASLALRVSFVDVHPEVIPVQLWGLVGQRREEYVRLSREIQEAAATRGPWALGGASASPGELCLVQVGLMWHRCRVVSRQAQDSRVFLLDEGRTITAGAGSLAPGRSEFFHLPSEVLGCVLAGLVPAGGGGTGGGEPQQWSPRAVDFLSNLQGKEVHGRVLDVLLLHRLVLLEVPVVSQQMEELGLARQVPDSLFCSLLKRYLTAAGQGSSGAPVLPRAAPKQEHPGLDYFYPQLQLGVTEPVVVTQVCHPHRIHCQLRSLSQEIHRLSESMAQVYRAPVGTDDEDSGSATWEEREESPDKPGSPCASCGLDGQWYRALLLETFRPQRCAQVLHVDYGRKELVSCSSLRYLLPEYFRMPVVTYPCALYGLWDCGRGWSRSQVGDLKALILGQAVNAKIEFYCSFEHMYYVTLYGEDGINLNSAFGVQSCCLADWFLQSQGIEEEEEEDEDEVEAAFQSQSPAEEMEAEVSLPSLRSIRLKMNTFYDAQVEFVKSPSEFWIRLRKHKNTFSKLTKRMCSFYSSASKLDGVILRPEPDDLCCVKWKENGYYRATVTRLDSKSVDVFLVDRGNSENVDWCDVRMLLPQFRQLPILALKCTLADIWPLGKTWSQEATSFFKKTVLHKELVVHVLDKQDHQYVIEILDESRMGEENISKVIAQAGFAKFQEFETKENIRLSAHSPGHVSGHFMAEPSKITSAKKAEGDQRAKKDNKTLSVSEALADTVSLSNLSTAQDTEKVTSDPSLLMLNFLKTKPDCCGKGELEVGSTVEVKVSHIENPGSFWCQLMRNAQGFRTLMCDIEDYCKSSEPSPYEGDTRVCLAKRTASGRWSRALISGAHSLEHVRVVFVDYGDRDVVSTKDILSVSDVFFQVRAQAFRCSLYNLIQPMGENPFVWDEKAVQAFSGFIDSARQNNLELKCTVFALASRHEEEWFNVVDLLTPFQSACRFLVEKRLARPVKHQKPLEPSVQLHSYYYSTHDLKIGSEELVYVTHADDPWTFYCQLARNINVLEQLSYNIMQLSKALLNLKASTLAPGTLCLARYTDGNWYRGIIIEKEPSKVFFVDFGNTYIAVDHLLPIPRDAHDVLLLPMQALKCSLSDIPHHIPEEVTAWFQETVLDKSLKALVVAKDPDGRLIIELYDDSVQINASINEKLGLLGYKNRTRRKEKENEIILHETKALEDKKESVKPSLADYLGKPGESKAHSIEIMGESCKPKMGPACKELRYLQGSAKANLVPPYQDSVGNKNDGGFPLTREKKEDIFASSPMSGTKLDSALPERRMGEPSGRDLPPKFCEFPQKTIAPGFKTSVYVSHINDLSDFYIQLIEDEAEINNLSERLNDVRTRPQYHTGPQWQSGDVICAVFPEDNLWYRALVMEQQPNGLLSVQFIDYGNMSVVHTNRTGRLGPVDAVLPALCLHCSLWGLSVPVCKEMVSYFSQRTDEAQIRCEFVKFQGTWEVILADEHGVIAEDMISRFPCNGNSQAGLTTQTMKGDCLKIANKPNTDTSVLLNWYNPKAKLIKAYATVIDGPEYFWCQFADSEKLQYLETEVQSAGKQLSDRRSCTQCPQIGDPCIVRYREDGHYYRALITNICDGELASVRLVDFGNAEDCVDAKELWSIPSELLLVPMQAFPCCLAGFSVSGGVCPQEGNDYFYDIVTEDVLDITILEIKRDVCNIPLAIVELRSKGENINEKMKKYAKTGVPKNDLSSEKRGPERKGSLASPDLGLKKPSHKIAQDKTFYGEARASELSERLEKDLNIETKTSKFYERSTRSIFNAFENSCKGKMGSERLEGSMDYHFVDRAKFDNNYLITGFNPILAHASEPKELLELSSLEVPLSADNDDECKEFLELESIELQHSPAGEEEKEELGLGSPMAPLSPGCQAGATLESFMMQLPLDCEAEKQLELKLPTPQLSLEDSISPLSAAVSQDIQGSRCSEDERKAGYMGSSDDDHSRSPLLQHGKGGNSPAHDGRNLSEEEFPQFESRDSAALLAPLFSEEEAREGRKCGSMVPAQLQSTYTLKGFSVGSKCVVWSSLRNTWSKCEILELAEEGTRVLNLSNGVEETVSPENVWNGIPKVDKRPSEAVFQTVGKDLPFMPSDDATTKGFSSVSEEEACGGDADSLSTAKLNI

B1: GFP-tagged PNLDC1 (protein, UniProt B2RXZ1 1-531)
chain: MDVGADEFEQSLPLLQELVAGADFVGLDIEFTGLRSNLSRPQQISLFDLPSEWYLKTRQSVQQFTICQIGLSMFSSIEGESNKYVAHSCNFFLFPTTFGILDSEFSFQASSVQFLNQYGFDYNKFLKNGIPYMNEEQEKKIKHSILRGNWRVRSSLDKDQIKVVIDKVTQWLDLAEEGDQMTLPGIAGFQAFEVQLVLRQALPNIWTVLKEEWVIVKKVSQPQRWYLEHASCDQVSCWKEQILLSARGFSVFFQMLVKAQKPLVGHNMMMDLLHLHEKFFRPLPESYDQFKQNIHSLFPVLIDTKNVTKDIWKELRFPRVSNLLEVYEVLSSNLNPTKDSGPVIIHARQCKKYAETKCPHEAAYDAFLCGSVLLKVAHLLLQRVHGNGAVHEPAFPQYLDVLAPYVNQVNLIRAGVPKINFSGPDYPSIRPPVLILTVKRWPGVSEQQVYREFQNLCKFDVRRFTRSQFLLLTNKFKDARSVLKEYRNHPTLQVSLYRSWRHSPNITCLLQVCSIVTTWAMIAFLLGRPMP
B2: GFP-tagged TDRD1 (protein, UniProt Q99MV1 1-1172)
chain: MMPRNNLEASTCKMAEPFNFEKKESKPPPQDPLRSPVAQHNHPTFRLKSPENGNTKNNFLLCEQNKQYLASQEDSSVVSSNPAVVNGEVGGSKGDRKPPPTGNPVSPLSLGNSSPPNQVKTKPSSNVTPEKSKKSHKLFENALSVNNPALFNSLGPPLRSTTCHRCGLFGSLRCSQCKQTYYCSTACQRRDWSSHSTICRPVQQSLNKLEDNKSPFETKAIEVKSEVDCPPGVTKEITAGAERVMFSDLRSLQLKKTMEIKGTVTEFKHPSNFYIQLYSSEVLENMNQLSTSLKETYANVVPEDGYLPVKGEVCVAKYTVDQTWNRAIVQAVDVLQRKAHVLYIDYGNEEMIPIDSVHPLSRGLDLFPPSAIKCCVSGVIPTAGEWSEGCVAAVKALLFEQFCSVKVMDILEEEVLTCAVDLVLQSSGKQLDHVLVEMGYGVKPGEQSSTEQSVDHSALEDVGRVTVESKIVTDRNALIPKVLTLNVGDEFCGVVAHIQTPEDFFCQQLQSGHKLAELQESLSEYCGHVIPRSDFYPTIGDVCCAQFSEDDQWYRASVLAYASEESVLVGYVDYGNFEILSLKRLCPIIPKLLDLPMQALNCVLAGVKPSLGIWTPEAVCVMKEMVQNRMVTVRVVGMLGTRALVELIDKSVAPHVSASKALIDSGFAIKEKDVADKGSSMHTASVPLAIEGPAEALEWTWVEFTVDETVDVVVCMMYSPGEFYCHFLKDDALEKLDDLNQSLADYCAQKPPNGFKAEIGRPCCAFFSGDGNWYRALVKEILPSGNVKVHFVDYGNVEEVTTDQLQAILPQFLLLPFQGMQCWLVDIQPPNKHWTKEATARFQACVVGLKLQARVVEITANGVGVELTDLSTPYPKIISDVLIREQLVLRCGSPQDSLMSRPANQHKQIDSHRVQASPSAEQWKTMELPVNKTIAANVLEIISPALFYAIPSEMSENQEKLCVLAAELLEHCNAQKGQPAYRPRTGDACCAKYTNDDFWYRAIVLETSESDVKVLYADYGNIETLPLSRVQPIPASHLELPFQIIRCSLEGPMELNGSCSQLVMELLRNAMLNQSVVLSVKAISKNVHAVSVEKCSENGMINIAENLVMCGLAENLTSKRKSASTKEIPHSRDCCCTELQKQIEKHEQILLFLLNNPTNQSKFTEMKKLLRS
B3: GFP-tagged TDRD5 (protein, UniProt Q5VCS6 1-1040)
chain: MSEQERIQDCLRKEIRSLLISTKDGLTPQQLEKEYLLMVGNHLPLRILGYRSTMELVLDMPDVVSVCPGGDGTVILKAIPDESTKGIASLVAKQRRSHKVRNSMPKGRPSICSGRVPYRGRVPPILPAVVKSELKDLLALSPVLLSDFEKAFARRFGRSFQYMQYGFLSMFEVLNAASDVISVEQTRAGSLLTLKKSVSEDKQRGWPAGKVFTQPFRMKQQGSYSTGFPVMKAHFSQPISNMEPPKQVLSMAKTPTFNSVEASRLNHTEKLNQLESTFKSVIAQIGPGGTVDPELKRKIQFVVSKFPQGLFISKLLGEFELTFKEQLSPKQLGFLNVTELVGALSDILRVEFSEERQDLLVFDADLKPLPSGGPLSSVRNSCLVQPDKKTEANPWTSSLSRNSLSTVAVKKTTWDCPLKNQKEPEQKIYKKPNLVVKPLQLQVETNKPQLSLSVANHDIPPDAVRAKKLCRLPPLDTSTLVGVFVEYIISPSQFYIRIYSRDSSELLEDMMIEMRRCYSNQLVSDRYIMPEYFIQPGHLCCVKISEDKWWYRVIIHRILGKKEVEVFYPDFGNIGTVQKSSLRFLKCCYTKLPAQAIPCSLAWVRPAEEHWTARAILHFQKLCGLKPLVGVVDEYIDGILNIFLCDTSSNEDVYFHHVLRTEGHAIVCRENAPSKGFRDFNPPALYTNASSAGDMVLTDLGHPAQQHYLNEDQEILQQAQQDINDGKCISYLKSAPKELLKDSKLSSLKTHKSCEEDPRWSILQPKDLKEENEDEVPTGMPCLESVTIGDDVWDENWLPLQAKMGKAGSPASQLFTSNLVGKKQYQTGGEMAQKDWCFSTSKDIWDDSWQPLGLANDVKGGIHTPEGPIAQEKNTSTTRIQQQPDLQYPLDSSTLPKLEEFYISLIKSQQSAERSQSEPASIQTHAGRAASKALSSTPAVGDSPENHSGSVESSPGSLKKEDVSNSRAEATAKDKSQGAIDQLSFILSPQHQISQKLYIPRSTATAVLGAAARLATSRSLLHWYPSVKGGKLEAERDGVK
B4: GFP-tagged TDRKH (protein, UniProt Q80VL1 1-560)
chain: MSTERTSWTNLSTIQKIALGLGIPASATVAYILYRRYRESREERLTFVGEDDIEIEMRVPQEAVKLIIGRQGANIKQLRKQTGARIDVDTEDVGDERVLLISGFPVQVCKAKAAIHQILTENTPVFEQLSVPQRSVGRIIGRGGETIRSICKASGAKITCDKESEGTLLLSRLIKISGTQKEVAAAKHLILEKVSEDEELRKRIAHSAETRVPRKQPISVRREEVTEPGGAGEAALWKNTNSSMGPATPLEVPLRKGGGDMVVVGPKEGSWEKPNDDSFQNSGAQSSPETSMFEIPSPDFSFHADEYLEVYVSASEHPNHFWIQIIGSRSLQLDKLVSEMTQHYENSLPEDLTVHVGDIVAAPLSTNGSWYRARVLGTLENGNLDLYFVDFGDNGDCALKDLRALRSDFLSLPFQAIECSLARIAPTGEEWEEEALDEFDRLTHCADWKPLVAKISSYVQTGISTWPKIYLYDTSDEKKLDIGLELVRKGYAVELPEDMEENRTVPNMLKDMATETDDSLASILTETKKSPEEMPHTLSCLSLSEAASMSGDDNLEDDLF

These molecules were tested against FLAG-tagged MIWI^RK (mouse) (UniProt Q9JMB7) (assay: co-IP; HEK293T cells co-transfected with FLAG-tagged MIWI or MIWI^RK and GFP-tagged proteins; after 48 h immunoprecipitation with anti-FLAG M2 Affinity Gel; Western blotting with anti-GFP and anti-FLAG).

binding, binds:
GFP-tagged RNF17 (from UniProt Q99MV7 1-1640)
B1
B2

Each molecule was assayed against FLAG-tagged MIWI (mouse) (UniProt Q9JMB7) in the same assay as above.

binding, binds:
GFP-tagged TDRD6 (from UniProt P61407 1-2134)
B3
B4
B2
